Data on 5 molecules can be found in article PMC2900304.

Test in all cases: co-IP
Experiment [1] deals with T1, human R1 (HR1), ribonucleotide reductase large subunit, endogenous (human (endogenous in HeLa)) (UniProt P23921).
T1 sequence: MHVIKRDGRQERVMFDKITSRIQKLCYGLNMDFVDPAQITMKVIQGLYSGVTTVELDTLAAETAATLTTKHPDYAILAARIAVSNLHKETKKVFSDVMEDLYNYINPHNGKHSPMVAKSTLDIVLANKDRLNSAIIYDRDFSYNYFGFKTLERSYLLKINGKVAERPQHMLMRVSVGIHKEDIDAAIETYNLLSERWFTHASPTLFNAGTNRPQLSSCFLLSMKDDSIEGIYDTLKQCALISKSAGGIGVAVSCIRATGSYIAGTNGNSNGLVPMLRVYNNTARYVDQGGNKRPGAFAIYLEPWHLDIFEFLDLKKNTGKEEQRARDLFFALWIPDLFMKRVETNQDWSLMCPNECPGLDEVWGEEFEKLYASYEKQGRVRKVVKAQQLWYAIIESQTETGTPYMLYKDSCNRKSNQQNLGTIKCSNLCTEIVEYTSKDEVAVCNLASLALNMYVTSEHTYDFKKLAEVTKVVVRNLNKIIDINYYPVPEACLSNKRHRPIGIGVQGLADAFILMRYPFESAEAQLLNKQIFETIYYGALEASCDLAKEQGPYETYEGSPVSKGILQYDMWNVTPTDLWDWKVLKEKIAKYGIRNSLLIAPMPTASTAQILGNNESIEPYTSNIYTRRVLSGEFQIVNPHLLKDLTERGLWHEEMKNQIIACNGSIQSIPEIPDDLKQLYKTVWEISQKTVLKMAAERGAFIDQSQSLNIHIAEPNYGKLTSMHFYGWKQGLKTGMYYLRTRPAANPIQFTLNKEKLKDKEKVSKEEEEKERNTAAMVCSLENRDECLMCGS

The target in experiment [2] is T2, human R2 (HR2), ribonucleotide reductase small subunit, endogenous (human (endogenous in HeLa)) (UniProt P31350).
T2 sequence: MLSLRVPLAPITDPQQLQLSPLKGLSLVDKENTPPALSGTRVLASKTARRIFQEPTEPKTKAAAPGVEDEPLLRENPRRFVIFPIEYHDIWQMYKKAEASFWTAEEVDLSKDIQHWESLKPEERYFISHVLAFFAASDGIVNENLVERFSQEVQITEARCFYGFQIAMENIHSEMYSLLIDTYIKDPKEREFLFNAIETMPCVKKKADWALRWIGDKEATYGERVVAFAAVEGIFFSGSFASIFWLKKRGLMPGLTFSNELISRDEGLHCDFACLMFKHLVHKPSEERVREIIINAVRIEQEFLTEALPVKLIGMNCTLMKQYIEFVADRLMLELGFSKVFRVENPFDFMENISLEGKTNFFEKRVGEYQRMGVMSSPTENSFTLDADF

For experiment [3], the target named is Flag-tagged vaccinia virus I4 (R1 subunit) (vaccinia virus (strain Western Reserve)) (UniProt P12848).
Experiment [4] addresses T3, human p53R2 (Hp53R2), endogenous (human (endogenous in HeLa)) (UniProt Q7LG56).
T3 sequence: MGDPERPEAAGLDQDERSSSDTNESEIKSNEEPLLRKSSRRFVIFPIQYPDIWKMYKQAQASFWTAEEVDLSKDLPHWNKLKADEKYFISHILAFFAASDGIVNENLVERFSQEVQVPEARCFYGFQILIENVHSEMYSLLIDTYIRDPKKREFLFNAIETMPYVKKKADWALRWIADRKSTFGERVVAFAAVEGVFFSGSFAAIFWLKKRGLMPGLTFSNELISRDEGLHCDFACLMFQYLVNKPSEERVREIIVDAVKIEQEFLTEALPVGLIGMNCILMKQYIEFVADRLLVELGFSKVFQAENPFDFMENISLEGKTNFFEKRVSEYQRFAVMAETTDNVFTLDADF

For experiment [5], the target named is T4, Flag-tagged human R1 (Flag-tagged HR1) (human) (UniProt P23921).
T4 sequence: T1 sequence

For experiment [6], the target named is His6-tagged vaccinia virus F4 (vaccinia virus (strain Western Reserve)) (UniProt P11158).

Results are given in words; binding and its absence hold for the method and conditions named. In cells and extracts the contact can be indirect. Some entries that bind do so weakly or less than the wild type. For part of these data: Where a sequence is shown, tags or fusion partners need not be part of it.

As for “His6-tagged vaccinia virus F4 (from UniProt P11158 1-319)”, the binding result in experiment [1] is reported as “binds”.
Regarding “vaccinia virus (VACV) F4, ribonucleotide reductase small subunit (R2) (from UniProt P11158 1-319)”, the binding result in experiment [2], in experiment [1], in experiment [3], in experiment [4] and in experiment [5] was “binds” throughout.

B1: human R1 (HR1), ribonucleotide reductase large subunit, endogenous (protein, UniProt P23921 1-792)
chain: T1 sequence
Turning to B1, the binding result in experiment [6] is reported as “binds”.

B2: human p53R2 (Hp53R2), endogenous (protein, UniProt Q7LG56 1-351)
chain: T3 sequence
On to B2, for which, in experiment [3], the binding result is reported as “binds”.

B3: human R2 (HR2), ribonucleotide reductase small subunit, endogenous (protein, UniProt P31350-1 1-389)
chain: T2 sequence
B3: the binding result in experiment [3] was “binds”.
